± gives the standard error. Many of these values have a large error.
B1: glmS ribozyme (parent)
chain: AUAAAAGCGCCAGAACUACAGAAAUGUAGUUGACGAGGAGGAGGUUUAUCGAAUUUUCGGCGGAUGCCUCCAAA

Variants of: B1
Experiment: self-cleavage kobs at 2500 uM GlcN6P; higher = faster cleavage; RNA array
Conditions: with glucosamine-6-phosphate
Method in brief: (§1)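 Glucosamine-6-phosphate, from 40 μM to 10 mM in HEPES/KCl/Mg(OAc)2 buffer, was flowed over sequenced MiSeq chips carrying barcoded ribozyme variants transcribed in situ by E. coli RNA polymerase. A hybridised Cy3 probe tracked the variants at 37 °C as tiles were imaged over ~14 h. kobs, kcat and KM were obtained by fitting normalised per-tile medians to exponential decays and then applying weighted Michaelis–Menten fits across concentrations.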

Variant | self-cleavage kobs at 2500 uM GlcN6P [s⁻¹]
A14U G29C | 1.87e-05 ± 1.6e-05
A14U G32C C50G G59U | 8.89e-05 ± 5.5e-05
A14U G66C C68A | 3.33e-05 ± 2.6e-05
A14U U47G A52G A64G | 3.37e-05 ± 1.9e-05
A14U U47G U55G C61A | 4.69e-05 ± 2.9e-05
A14U U49A G51U A64U C68G | 3.45e-05 ± 3.3e-05
A14U U55A | 0.00268 ± 0.0014
A15C C16G G37A C71U | 1.97e-05 ± 1.3e-05
A15C C61G C68U | 2.59e-05 ± 2.6e-05
A15C C68A | 3.46e-05 ± 1.8e-05
A15C C68A C71U | 2.22e-05 ± 2.1e-05
A15C C70G C71A | 4.64e-05 ± 2.7e-05
A15C G32U C34U U46C C50A U55G | 0.000152 ± 9.2e-05
A15C G32U U55G C58G U69G | 9.28e-05 ± 5.1e-05
A15C U30G C68G | 6.69e-05 ± 3.9e-05
A15G A36G C68G | 3.68e-05 ± 3.6e-05
A15G C34G C61G G63A C67U | 5.6e-05 ± 3e-05
A15G C34G C68A | 3.52e-05 ± 2.6e-05
A15G C70G | 0.00587 ± 0.0034
A15U A33G U47G U54G C67U C71A | 9.21e-05 ± 5.6e-05
A15U A33U C70U | 4.45e-05 ± 3.1e-05
A15U A42U | 2.31e-05 ± 1.7e-05
A15U A53U U57C | 3.44e-05 ± 3e-05
A15U G41A C70G | 4.04e-05 ± 2.3e-05

Variant | self-cleavage kobs at 2500 uM GlcN6P [s⁻¹]
A15U U49G C50G G63A | 2.83e-05 ± 2.2e-05
A15U U55G C58U | 3.41e-05 ± 2.3e-05
A15U U57A | 2.17e-05 ± 1.2e-05
A15U U65C C67G | 2.89e-05 ± 2.3e-05
C16A C50G G59U | 2.93e-05 ± 2.1e-05
C16A C58U C71U | 3.37e-05 ± 2.1e-05
C16A G32A C71A | 2.95e-05 ± 2.6e-05
C16A G59U C68G | 3.73e-05 ± 2.4e-05
C16A U46G C71A | 5.44e-05 ± 3.3e-05
C16G A52U | 3.89e-05 ± 2.3e-05
C16G C50U C68G | 4.07e-05 ± 2.2e-05
C16G C61U C68A U69A | 2.42e-05 ± 2e-05
C16G U55G U69A | 4.77e-05 ± 2.6e-05
C16U A33U C67A | 2.37e-05 ± 1.7e-05
C16U A42U A53U | 2.97e-05 ± 1.7e-05
C16U A42U C71A | 3.51e-05 ± 2.3e-05
C16U A52U C68G | 4.55e-05 ± 3.7e-05
C16U C50G | 0.000799 ± 0.00041
C16U U31A U45A | 0.0343 ± 0.018
C19A G32C A39U | 2.55e-05 ± 1.6e-05
C19A G43A | 2.99e-05 ± 2.4e-05
G26A G60A | 2.34e-05 ± 2.2e-05
G26U G60A C68A | 3.78e-05 ± 2.9e-05
G29A C50U C68A | 2.57e-05 ± 2e-05

Variant | self-cleavage kobs at 2500 uM GlcN6P [s⁻¹]
G29A C67U C71G | 4.96e-05 ± 2.6e-05
G29A G37A U47C | 3.17e-05 ± 1.6e-05
G29A G38C C70A | 3.99e-05 ± 3.1e-05
G29A U47G | 0.000138 ± 9.6e-05
G29A U57A | 3.19e-05 ± 3e-05
G29C G59A C68G U69A | 3.67e-05 ± 2.3e-05
G29C U46A U54A | 4.25e-05 ± 3.4e-05
G29C U49G | < 1e-05
G29C U54A G66U C71U | 3.25e-05 ± 3.1e-05
G29C U54G G60A | 0.00475 ± 0.0026
G29C U65C | 3.57e-05 ± 2e-05
G29U U30G G43C C68G | 0.00395 ± 0.0031
G29U U49C C50G C70A | 3.73e-05 ± 2e-05
G29U U49G A64G | 5.17e-05 ± 3.8e-05
G29U U57G | 2.24e-05 ± 2.1e-05
U30A A48U | 3.1e-05 ± 1.9e-05
U30A U55G C61U | 8.72e-05 ± 6.3e-05
U30C A36C C50G G59C | 0.000155 ± 0.00013
U30C C68G C70U | 4.11e-05 ± 2.9e-05
U30C G41U | 4.59e-05 ± 2.3e-05
U30C U46A | 2.12e-05 ± 1.6e-05
U30G A48U U65A U69G C70U | 2.46e-05 ± 2.2e-05
U30G A64U | 2e-05 ± 1.8e-05
U30G C67G C68U | 4e-05 ± 2.3e-05

Exported as tab-separated lines: part of the list above
Variant	self-cleavage kobs at 2500 uM GlcN6P [s⁻¹]
A14U U49A G51U A64U C68G	3.45e-05 ± 3.3e-05
A15C U30G C68G	6.69e-05 ± 3.9e-05
C16U A52U C68G	4.55e-05 ± 3.7e-05
C16U U31A U45A	0.0343 ± 0.018
C19A G43A	2.99e-05 ± 2.4e-05

A portion from further up, as a working copy:
Variant | self-cleavage kobs at 2500 uM GlcN6P [s⁻¹]
U30C G41U | 4.59e-05 ± 2.3e-05
U30C U46A | 2.12e-05 ± 1.6e-05
U30G A48U U65A U69G C70U | 2.46e-05 ± 2.2e-05
U30G A64U | 2e-05 ± 1.8e-05
U30G C67G C68U | 4e-05 ± 2.3e-05

(listing goes on)

Variant | self-cleavage kobs at 2500 uM GlcN6P [s⁻¹]
U30G U57A C58A | 4.74e-05 ± 3.6e-05
U31A A64C | 3.13e-05 ± 1.9e-05
U31A C50G U65G | 3.72e-05 ± 2.6e-05
U31C A42G C70U | 0.000287 ± 0.00019
U31C A48U | 3.14e-05 ± 1.8e-05
U31C G32U G59U | 3.4e-05 ± 3.1e-05
U31C U57C | 1.11e-05 ± 1.1e-05
U31G C34A G37U C67U | 4.39e-05 ± 3.2e-05
U31G G59U | 2.66e-05 ± 1.9e-05
U31G U49C U54A G63C C68G U69G | 2.75e-05 ± 1.8e-05
G32A A52G A64G | 0.000101 ± 6.6e-05
G32A G59A C70U | 4.14e-05 ± 2.9e-05
G32C C50G | 3.47e-05 ± 3.2e-05
G32C C67U | 1.79e-05 ± 1.4e-05
G32C C71A | 2.4e-05 ± 1.8e-05
G32C G62A C68U C71G | 5.2e-05 ± 4.4e-05
G32C G66A | 1.42e-05 ± 1.2e-05
G32U A42G U46C | 3.23e-05 ± 2.7e-05
A33C C50G G59C A64G | 4.03e-05 ± 3e-05
A33G C34G G35U A52G U69A | 0.000325 ± 0.00017
A33G C50G G62U | 3.29e-05 ± 1.9e-05
A33G G51A U55G C67G | 4.97e-05 ± 2.5e-05
A33G G62U U69G C70G | 4.9e-05 ± 2.8e-05
A33G U56G A64G C70A | 3.8e-05 ± 2.1e-05

Variant | self-cleavage kobs at 2500 uM GlcN6P [s⁻¹]
A33G U65A C70G | 3.13e-05 ± 2.4e-05
A33U A52U C70U | 3.48e-05 ± 2.1e-05
A33U C34U A36C U69G | 0.00279 ± 0.0014
A33U G40A | 1.04e-05 ± 7.7e-06
A33U U46C C70U | 2.82e-05 ± 1.7e-05
A33U U47C | 0.004 ± 0.0033
A33U U54A U57G | 4.51e-05 ± 3.2e-05
C34A A36C G37U U69G | 6.31e-05 ± 3.2e-05
C34G G35C U46G | 3.86e-05 ± 3.5e-05
C34U A52G U57A U65G U69G C70A | 0.00101 ± 0.00062
C34U G51A | 2.52e-05 ± 1.4e-05
C34U G51A U57G U69G | 5.57e-05 ± 3.9e-05
G35U U47G C50G G62A G66A | 3.53e-05 ± 2.2e-05
A36C C70A | 4.87e-05 ± 2.6e-05
A36C G43C A52U | 4.58e-05 ± 3.4e-05
A36U U49A A53C | 2.37e-05 ± 2.2e-05
G37A A53G C58A | 3.64e-05 ± 2.5e-05
G37A C50G U69C | 3.55e-05 ± 2e-05
G37A C70A | 1.39e-05 ± 9e-06
G37A U56G C70G | 1.56e-05 ± 1.5e-05
G37A U69A | 1.78e-05 ± 1.4e-05
G37C C58U C61U C68G | 5.63e-05 ± 3e-05
G37C C70G | 2.14e-05 ± 1.8e-05
G37C C71A | 2.36e-05 ± 1.7e-05

Variant | self-cleavage kobs at 2500 uM GlcN6P [s⁻¹]
G37C U45A A53U | 4.35e-05 ± 3e-05
G37C U55C | 1.9e-05 ± 1.5e-05
G37C U69G | 2.42e-05 ± 1.7e-05
G37C U69G C71A | 3.59e-05 ± 3e-05
G37U C61G C67G | 3.76e-05 ± 2.7e-05
G37U C67U C70G | 3.78e-05 ± 2.8e-05
G37U G38C C50G A64G C68A | 4.74e-05 ± 2.9e-05
G37U U69G | 3.03e-05 ± 1.6e-05
G38A A64G C67U | 4.68e-05 ± 3.5e-05
A39G A52U U55C G66U | 3.21e-05 ± 2.8e-05
A39G C61U | 3.6e-05 ± 1.8e-05
A39G G59U | 1.17e-05 ± 1.1e-05
A39U U47A G59A C70U | 4.45e-05 ± 2.7e-05
A39U U54A | 0.0056 ± 0.004
G40A U45C U65C | 3.07e-05 ± 2.5e-05
G40C U56A C70A | 3.8e-05 ± 2.1e-05
G40U U46C A53U | 0.000469 ± 0.00036
G40U U47A C70G | 4.32e-05 ± 2.8e-05
G41A A42C C71G | 3.24e-05 ± 2e-05
G41A A52U | 3.37e-05 ± 2.8e-05
G41C A42U | 3.04e-05 ± 2.2e-05
G41U A48U | 3.01e-05 ± 1.6e-05
G41U U55G C68U C70U | 3.33e-05 ± 2e-05
G41U U65G | 0.00072 ± 0.00051

Variant | self-cleavage kobs at 2500 uM GlcN6P [s⁻¹]
A42C | < 1e-05
A42C U54A C67G | 5.08e-05 ± 3.2e-05
A42C U54G | 2.45e-05 ± 1.7e-05
A42G C58U | 1.99e-05 ± 1.1e-05
A42G G44C | 1.9e-05 ± 1.9e-05
A42U C70G | 1.59e-05 ± 1.2e-05
G43A A53U | 3.15e-05 ± 1.6e-05
G43A A53U C70U | 4.13e-05 ± 2.2e-05
G43A C68A | 2.73e-05 ± 1.6e-05
G43A U56A | 2.21e-05 ± 1.5e-05
G43U G66A | 2.6e-05 ± 1.6e-05
G43U G66U C67U | 2.63e-05 ± 2.5e-05
G43U U45C | 1.77e-05 ± 1.2e-05
G43U U55A | 1.59e-05 ± 9.6e-06
G44C U55A | 2.78e-05 ± 1.9e-05
G44U C50U C67G | 2.81e-05 ± 2.1e-05
U45A C68G | 2.18e-05 ± 1.6e-05
U45A U54C | 0.042 ± 0.024

Variants of: B1
Experiment: self-cleavage kobs at 10000 uM GlcN6P; higher = faster cleavage; RNA array
Conditions: with glucosamine-6-phosphate
Method in brief: as §1

Variant | self-cleavage kobs at 10000 uM GlcN6P [s⁻¹]
A15C C70G C71A | 1.71e-05 ± 1.5e-05
C16U C50G | 2e-05 ± 1.6e-05
G29C U49G | 1.64e-05 ± 1.1e-05
U30C G41U | 1.39e-05 ± 1.1e-05
G32C C50G | 0.000728 ± 0.00068
G32C C71A | 1.52e-05 ± 1.2e-05
A33U U46C C70U | 2.1e-05 ± 1.9e-05
A36C C70A | 1.87e-05 ± 1.7e-05
G43A A53U | 1.86e-05 ± 1.4e-05
G43A U56A | 1.6e-05 ± 9.5e-06
G43U G66A | 2.68e-05 ± 1.7e-05
G43U U55A | 2.1e-05 ± 1.7e-05
U45A C68G | 3.02e-05 ± 1.6e-05

From the supplement of paper PMC7125110
